Reference: article PMC10556777
These are yes or no findings as the source states them, for the method shown.

Sequences of proteins named here, by UniProt entry; tags and fusion partners are left off. A change or cut given only in a name is not applied to a line headed by its entry.
UniProt P35637: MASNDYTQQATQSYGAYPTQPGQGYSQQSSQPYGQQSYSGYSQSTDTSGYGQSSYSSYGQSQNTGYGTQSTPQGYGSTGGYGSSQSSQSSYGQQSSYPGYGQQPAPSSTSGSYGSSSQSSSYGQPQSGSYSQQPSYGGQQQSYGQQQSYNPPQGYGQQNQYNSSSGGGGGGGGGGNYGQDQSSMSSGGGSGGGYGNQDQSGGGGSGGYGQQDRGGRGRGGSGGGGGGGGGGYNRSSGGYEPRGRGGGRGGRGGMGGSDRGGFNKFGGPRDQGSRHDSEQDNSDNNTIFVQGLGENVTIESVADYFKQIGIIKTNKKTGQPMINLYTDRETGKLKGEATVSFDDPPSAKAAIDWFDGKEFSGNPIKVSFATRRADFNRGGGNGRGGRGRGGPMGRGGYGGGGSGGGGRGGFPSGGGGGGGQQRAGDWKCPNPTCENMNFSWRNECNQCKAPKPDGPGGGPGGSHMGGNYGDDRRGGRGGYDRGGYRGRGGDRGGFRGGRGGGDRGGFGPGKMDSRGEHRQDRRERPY
UniProt P00573: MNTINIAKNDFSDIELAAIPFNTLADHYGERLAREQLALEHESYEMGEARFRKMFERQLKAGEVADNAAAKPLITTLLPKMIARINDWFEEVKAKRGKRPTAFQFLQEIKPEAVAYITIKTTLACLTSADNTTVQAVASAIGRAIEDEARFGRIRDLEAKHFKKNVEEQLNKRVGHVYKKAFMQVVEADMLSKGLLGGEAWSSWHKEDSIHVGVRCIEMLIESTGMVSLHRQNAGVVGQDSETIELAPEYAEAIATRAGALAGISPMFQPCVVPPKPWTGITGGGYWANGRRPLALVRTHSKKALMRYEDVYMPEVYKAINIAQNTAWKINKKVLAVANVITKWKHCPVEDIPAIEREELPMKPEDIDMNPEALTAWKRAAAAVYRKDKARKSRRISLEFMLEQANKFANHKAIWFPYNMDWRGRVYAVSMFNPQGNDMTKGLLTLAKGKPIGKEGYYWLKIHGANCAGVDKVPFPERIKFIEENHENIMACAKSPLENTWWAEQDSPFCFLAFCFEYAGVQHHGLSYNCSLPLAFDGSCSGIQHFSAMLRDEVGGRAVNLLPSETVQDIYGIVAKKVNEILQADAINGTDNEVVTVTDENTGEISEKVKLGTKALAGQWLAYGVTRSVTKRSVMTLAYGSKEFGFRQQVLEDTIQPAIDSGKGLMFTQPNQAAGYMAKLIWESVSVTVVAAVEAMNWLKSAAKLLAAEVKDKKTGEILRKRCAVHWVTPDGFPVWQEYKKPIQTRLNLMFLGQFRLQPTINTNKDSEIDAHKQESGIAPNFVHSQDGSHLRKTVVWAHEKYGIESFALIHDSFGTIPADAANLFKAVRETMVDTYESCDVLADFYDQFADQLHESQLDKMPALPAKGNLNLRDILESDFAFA

Target: FUS (FUSed in sarcoma), recombinant with N-terminal 6xHis and maltose binding protein (MBP) (UniProt P35637)
Test: co-IP; recombinant FUS (1.3 ug) immobilised with anti-FUS (4H11) antibody on Protein A/G agarose beads in PBS pH 7.4 with 0.1 mg/ml BSA; beads incubated with T7 Pol 1 h at room temperature, washed in high salt and TBS with 0.1% NP-40 substitute; Western blot with anti-FUS and anti-His; with RNA present or absent, also with linear DNA template; N = 4; both purified

With “T7(P266L) polymerase fused with a 6xHis tag (from UniProt P00573 1-883) (enzyme)” the binding was “no binding”.
